Results of single-concentration screens

T. brucei: 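Whole-parasite assay of Trypanosoma brucei over 72 hours; the read-out is not stated. Tested at 30 µM. Direction is inferred from retests: higher values go with stronger inhibition. Values scatter widely below zero; nearly all retest evidence comes from the higher of the two concentrations used. Of about 64,000 compounds tested this way, about 940 (1.5%) reached 50% or more in at least one test.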
Leishmania in macrophages: 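Cell assay of Leishmania donovani living inside macrophages; the read-out is not stated. Tested at 30 µM. The record gives no direction; compounds that gave an IC50 in retests scored well above the rest, so higher reads as stronger inhibition. Size under these conditions: about 69,000 compounds, about 1,000 of them at 50% or above in at least one test.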
Toxoplasma: 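Assay of Toxoplasma gondii numbers, read through their beta-galactosidase reporter with a colour substrate. Tested at 10 µM. Higher reads as fewer parasites (inferred from which compounds were picked for retests). Of about 67,000 compounds tested this way, about 260 (0.38%) reached 50% or more in at least one test.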

Each number is a percent effect as filed.
The record does not define 0% and 100%; most values in the screen are far below 50% and negative numbers occur (in some assays of this library far below -100).
Compounds were drawn at random from those tested, without regard to their results.
Two or more numbers in one place are separate tests of the same structure; such repeats can differ widely.
A dash means the value is not listed here; it may have been measured.

Compound	T. brucei	Leishmania in macrophages	Toxoplasma
CC(C)c1ccc(OCC(=O)NS(=O)(=O)c2cccnc2)cc1	-	-6.422	8.828
CN1CC[C@]2(CN(C(=O)[C@H]3CCCO3)C[C@H]2c2ccccc2)C1=O	-	1.856	-5.302
Cc1cc2nc(C(C)C)cc(NCCNc3ncccc3C)n2n1	-45.75	10.9	22.91
Cc1cccc(C(C)(C)CNC(=O)CCSc2nnnn2C)c1	-63.7	18.15	2.588
Cc1ccc(CNC(=O)c2nc3c(n2C)CCN(c2ncccn2)C3)o1	-7.605	-21.64	-38.66
[H][C@@]12CN(CCOC)C[C@]1([H])[C@H](OC)CCN2C(=O)c1cccs1	18.33	23.39	15.16
NC(=O)Cc1csc(NC(=O)C2CSCCC(=O)N2)n1 (stereo not drawn)	6.678	12.64 & 6.786	-13.38
Cc1ccc(S(=O)(=O)Cc2nnc(C)n2C)cc1	-38	13.95	4.945
Cc1noc(-c2ccc(N3CCCC(C(N)=O)C3)nc2)n1 (stereo not drawn)	-10.85	32.67	-41.22
Cc1ccc(C(=O)N2CCOCC2C(N)=O)c(F)c1 (stereo not drawn)	-8.01	-9.238	1.34
Cc1cc(C2CCCN2CC(=O)N(CCC#N)c2ccccc2F)on1 (stereo not drawn)	18.65	29.14	4.631
O=C(NCCNc1ncccn1)C1CCN(C(=O)c2ccoc2)CC1	-2.598	25.38	-21.13
Cc1ccccc1CN(C)C(=O)CN1CCCCC1Cn1cncn1 (stereo not drawn)	-2.229	23.21	3.605
COc1ccc2[nH]c(=O)c(CN(C)C(C)c3ccccn3)cc2c1 (stereo not drawn)	19.47	23.16	-4.554
CCn1cnnc1CNC(=O)N1CCCC1	-23.1	-16.76	-8.81
CN1CCc2[nH]cnc2C12CCN(C(=O)c1noc3c1CCCC3)CC2	-18	6.42	6.131
CC(C)n1cc(C(=O)NC2CN3CCC2CC3)c2ccccc21 (stereo not drawn)	-15.41	27.29	6.344
Cc1cnc(N2CCOC3(CCCN(c4ncccn4)C3)C2)nc1 (stereo not drawn)	-	-33.94	-18.56
Cc1cc(C)n(C2CN(c3ncnc4[nH]ccc34)C2)n1	9.623	15.86	-0.6732
CCOc1cc(CNC(=O)N2CCC(Cc3cnn(C)c3)C2)ccn1 (stereo not drawn)	-9.633	9.986	-18.42
CC1c2ncc(CNC(=O)C3CC3)n2CCN1Cc1nccs1.O=C(O)C(F)(F)F (stereo not drawn)	-11.04	18.49	15.16
Cc1ccnn1CCC(=O)N1CCCC1c1cc2cccnc2[nH]1.Cl (stereo not drawn)	-12.68	-28.4	-28.66
O=C(c1ccncc1F)N1CCc2ncnc(N3CCOCC3)c2CC1	-1.491	15.87	-10.86
O=C(O)C(c1ccc2c(c1)OCCO2)N1CCCC1 (stereo not drawn)	-5.18	9.712	7.446
CN(CCc1ccccc1)Cc1nc(-c2cnccn2)no1	6.863	-6.93	1.095
N#CC1(C(=O)N2CCN(Cc3ccon3)CC2)CCC1	-89.44	-3.767	-
Cc1ccc(NC(=O)Nc2c[nH]c(=O)[nH]c2=O)c(C)c1	-29.58	46.49	21.7
Cc1nccn1CCC(=O)N1CCCN(c2ccccc2)CC1	-26.68	13.51	-11
Cc1cc2n(n1)CC(CNC1CCN(C3CC3)CC1)CN2 (stereo not drawn)	1.211	18.85	0.7536
O=C(NCCNc1ncccn1)NCCc1c(F)cccc1F	-27.37	6.921	-3.483
CC(=O)N1CC(C)CN(C(=O)c2cnccn2)c2ccccc21 (stereo not drawn)	-33.81	-15.12	9.165
Cc1nn(C)c(Cl)c1C1CCCN1c1ncnc2[nH]ccc12 (stereo not drawn)	-16.32	-20.72	23.08
Cc1cnn(C2CN(CC(=O)N(C)Cc3ccc(C)o3)C2)c1	-26.28	-28.56	-4.388
COC(=O)c1cc(OCC2CCC2)cc(C(=O)N[C@@H](C)CO)c1	-9.171	18.91	-4.508
Cc1n[nH]c(C)c1Sc1ccccc1NC(=O)N1CCOCC1	11.59	-3.657	-10.13
Cc1nn(C)c2nc(N3CCNC(=O)C3Cc3ccccc3)sc12 (stereo not drawn)	-17.93	-10.41	-1.855
O=C(O)C(F)(F)F.[H][C@]12C[C@@H](C(=O)Nc3cnccn3)CO[C@@]1([H])CCN(c1ncc(F)cn1)C2	-3.537	12.42	21.29
COCC1CN(Cc2ccc3c(c2)OCO3)Cc2ncn(C)c21.O=C(O)C(F)(F)F.O=C(O)C(F)(F)F (stereo not drawn)	-9.402	-21.01	-1.211
CN(Cc1cnn(C)c1)C(=O)CN1CCCCC1Cn1cncn1 (stereo not drawn)	12.84	0.6212	0.5461
COc1cc(N2CCC3(CC2)CN(C)C(=O)CO3)ncn1	-19.23	28.38	-4.839
Cc1cc(C)nc(NC(=O)C(C)Oc2ccc3c(c2)OCO3)n1 (stereo not drawn)	1.03	11.05	-13.91
CCN(CC1CCOCC1)C(=O)CCNC(=O)c1ccccc1F	-	12.23	-0.05671
O=C(CCOCc1ccccc1)NS(=O)(=O)N1CCOc2ccccc21	4.849	54.49	10.21
CCCN1C[C@H](NC(=O)c2ccccc2F)[C@@H](c2ccc(OC)cc2)C1	-8.438	26.52 & 19.56	-9.948
CCS(=O)(=O)Nc1ccn(Cc2cccc(Cl)c2)n1	37.51	30.61	6.058
CC(C)Cn1cncc1-c1nc2c([nH]1)CC(C)(C)CNC2=O	-32.04	-20.96	-3.745
Cn1cc(CNc2ccc(F)c(N3CCCS3(=O)=O)c2)cn1	-12.76	24.92	6.667
CCN(CC)S(=O)(=O)N1CCCC1C(=O)N1CCSCC1 (stereo not drawn)	-43.1	-29.45	12.26
Cn1cc(CNC2CCCN(Cc3noc(C4CC4)n3)C2)cn1 (stereo not drawn)	-44.07	-2.648	-44.04
CS(=O)(=O)CCc1ncnn1-c1ccc(F)c(Cl)c1	8.147	6.031	5.407
Cc1ccc(CNC2(Cc3cc(CC(C)C)on3)COC2)o1	-53.38	-12.32	-12.72
CC(C)n1nnc(CC(=O)NCC2(c3ccccc3F)CCCC2)n1	-13.03	20.84	-1.492
COc1cccc(C(=O)NCC(c2cccn2C)N2CCCC2)c1OC (stereo not drawn)	-16.52	-8.432	30.98

Repeated from the top, 3 entries:

Compound	T. brucei	Leishmania in macrophages	Toxoplasma
CC(C)c1ccc(OCC(=O)NS(=O)(=O)c2cccnc2)cc1	-	-6.422	8.828
CN1CC[C@]2(CN(C(=O)[C@H]3CCCO3)C[C@H]2c2ccccc2)C1=O	-	1.856	-5.302
Cc1cc2nc(C(C)C)cc(NCCNc3ncccc3C)n2n1	-45.75	10.9	22.91

The values are deposited in ChEMBL (CHEMBL3988442, “University of Dundee, Small-Polar-MMV Screening Library” (2021)).